Experiment: in vivo
Details: mouse, po
From the text: Die akute Toxizität wurde an jeweils 5 männlichen und 5 weiblichen Mäusen im Gewicht von 18 - 23 Gramm pro dosi bestimmt. Die Applikation der Prüfsubstanzen erfolgte oral. Die Berechnung der LD50 wurde nach Litchfield und Wilcoxon durchgeführt.

SMILES: CN1C2CCC1CC(OC(=O)C(CO)c1ccccc1)C2 (racemic) [Atropin, reference compound]
- LD50: 850 mg/kg

Source: EP0139627A1, “Process for the preparation of 5,10-dihydro-1H-dibenzo [B,E] [1,4] diazepin-11-ones substituted in position 5” (ARZNEIMITTELWERK DRESDEN GmbH, priority 1983, dated 1985)
